Measurements published in article PMC13202173.

Amino acid sequences for entries named in this document (tags omitted).
UniProt P25490, whole entry: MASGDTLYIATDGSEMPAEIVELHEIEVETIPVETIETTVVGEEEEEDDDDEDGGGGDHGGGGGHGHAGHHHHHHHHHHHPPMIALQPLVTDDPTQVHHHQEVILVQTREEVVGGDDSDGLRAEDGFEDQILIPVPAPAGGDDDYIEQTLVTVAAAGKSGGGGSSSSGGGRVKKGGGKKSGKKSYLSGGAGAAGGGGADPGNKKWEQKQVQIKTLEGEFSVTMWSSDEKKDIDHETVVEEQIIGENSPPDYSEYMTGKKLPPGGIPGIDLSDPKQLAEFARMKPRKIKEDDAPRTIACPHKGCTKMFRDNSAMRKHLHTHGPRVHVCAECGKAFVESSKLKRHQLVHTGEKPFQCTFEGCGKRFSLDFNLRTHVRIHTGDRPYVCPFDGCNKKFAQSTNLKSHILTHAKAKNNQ

Assays:
[1] = molecular target: MBP-mCherry-YY1 (Homo sapiens) (UniProt P25490); assay: EMSA; conditions: Motif EMSA: 10 mM Tris pH 7.5, 50 mM KCl, DTT, Tween 20, 5 mM MgCl2, ~25 nM probe, room temperature 30 min, G4 EMSA: 10 mM Tris-HCl pH 7.5, 100 mM KCl, 10 uM Zn, recombinant protein, protein details: N-MBP-TEV, C-mCherry, label: 5' IRDye 700 on strand 1
MBP-YY1 = MBP-YY1 (UniProt P25490); assay: fluorescence anisotropy; conditions: 100 mM KCl, anisotropy: same without glycerol, on ice 30 min, recombinant protein, protein details: MBP (as named in the legends of Fig 5F and 6I), label: 5' IRDye 700 on strand 1, folded or branched DNA

Sequence	binding result ([1]; polyP100, 10 uM Zn2+, 100 mM KCl, folded or branched DNA)	binding result ([1]; polyP700 (1 mM sufficient), 10 uM Zn2+, 100 mM KCl, folded or branched DNA)	binding result (MBP-YY1; 5 mM polyP100, 10 uM Zn2+)	binding result (MBP-YY1; 5 mM polyP700, 10 uM Zn2+)	binding result (MBP-YY1; no polyP, 0.4 uM protein, 10 nM probe, 10 uM Zn2+)	binding result ([1]; 5 mM Mg2+, no polyP)	binding result ([1]; polyP100 (7.5 mM by Methods), 5 mM Mg2+)	binding result ([1]; polyP700 (7.5 mM by Methods), 5 mM Mg2+)
AAAGGGTTAGTGTTAGTGTTAGGGAA / TTCCCTAACCCTAACCCTAACCCTTT [human telomere G4 (hTEL) probe]	no binding	binds more weakly	binds more weakly	binds more weakly	binds	–	–	–
GCCGCCATTTTG (double strand) [YY1 long consensus motif probe]	–	–	–	–	–	binds	no binding	binds more weakly

For at least one entry, the source does not settle the construct or the ends of the probe. For some assays here: No signal at the amounts used counts as a negative. Weaker means in comparison with the reference protein, sequence or condition of that experiment. At least one verdict was read from the data and is not stated in words by the source.
